{"source": "the supplement of paper PMC8728848", "binders": {"B1": {"name": "SUN4 (Saccharomyces cerevisiae), P53616 (protein)", "chain": "MGSSHHHHHHSSGLVPRGSHNGSIYGDLADFSGPYEKFEDGTIPCGQFPSGQGVIPISWLDEGGWSGVENTDTSTGGSCKEGSYCSYACQPGMSKTQWPSDQPSDGRSIGGLLCKDGYLYRSNTDTDYLCEWGVDAAYVVSELSNDVAICRTDYPGTENMVIPTYVQAGDSLPLTVVDQDTYYTWQGLKTSAQYYVNNAGISVEDACVWGSSSSGVGNWAPLNFGAGSSDGVAYLSLIPNPNNGNALNFNVKIVAADDSSTVNGECIYENGSFSGGSDGCTVSVTAGKAKFVLYN"}}, "assay_in_all_cases": "glycan array binding signal (z-score within array); higher = stronger binding", "conditions_in_all_cases": "glycan notation: IUPAC condensed, linker removed", "key": {"Gal3S4S(b1-4)GlcNAc": {"biological_target": "Gal3S4S(b1-4)GlcNAc", "in_short": "(§1)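 Glycan array data were curated from 3228 arrays in the Consortium for Functional Glycomics database and kept only where the protein sequence was available. Glycan names were converted to IUPAC-condensed notation, and columns mapping to the same glycan were averaged. The binding signal is a within-array Z-score, averaged across arrays of the same protein sequence at different concentrations or buffers and across linkers. Negative Z-scores can be read as non-binding.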"}, "Gal3S6S(b1-4)GlcNAc": {"biological_target": "Gal3S6S(b1-4)GlcNAc", "in_short": "as §1"}, "Gal3S6S(b1-4)GlcNAc6S": {"biological_target": "Gal3S6S(b1-4)GlcNAc6S", "in_short": "as §1"}, "Gal4S(b1-4)GlcNAc": {"biological_target": "Gal4S(b1-4)GlcNAc", "in_short": "as §1"}, "Gal4S6S(b1-4)GlcNAc": {"biological_target": "Gal4S6S(b1-4)GlcNAc", "in_short": "as §1"}, "Gal6P(b1-4)GlcNAc": {"biological_target": "Gal6P(b1-4)GlcNAc", "in_short": "as §1"}, "Gal6S(b1-3)GlcNAc": {"biological_target": "Gal6S(b1-3)GlcNAc", "in_short": "as §1"}, "Gal6S(b1-3)GlcNAc6S": {"biological_target": "Gal6S(b1-3)GlcNAc6S", "in_short": "as §1"}, "Gal6S(b1-4)Glc": {"biological_target": "Gal6S(b1-4)Glc", "in_short": "as §1"}, "Gal6S(b1-4)Glc6S": {"biological_target": "Gal6S(b1-4)Glc6S", "in_short": "as §1"}, "Gal6S(b1-4)GlcNAc": {"biological_target": "Gal6S(b1-4)GlcNAc", "in_short": "as §1"}, "Gal6S(b1-4)GlcNAc6S": {"biological_target": "Gal6S(b1-4)GlcNAc6S", "in_short": "as §1"}, "GalNAc(a1-3)Gal": {"biological_target": "GalNAc(a1-3)Gal", "in_short": "as §1"}, "GalNAc(a1-3)GalNAc": {"biological_target": "GalNAc(a1-3)GalNAc", "in_short": "as §1"}, "[1]": {"biological_target": "GalNAc(a1-3)GalNAc(b1-3)Gal(a1-4)Gal(b1-4)Glc", "in_short": "as §1"}, "[2]": {"biological_target": "GalNAc(a1-3)GalNAc(b1-3)Gal(a1-4)Gal(b1-4)GlcNAc", "in_short": "as §1"}, "GalNAc(b1-3)Gal": {"biological_target": "GalNAc(b1-3)Gal", "in_short": "as §1"}, "[3]": {"biological_target": "GalNAc(b1-3)Gal(a1-4)Gal(b1-4)GlcNAc", "in_short": "as §1"}, "[4]": {"biological_target": "GalNAc(b1-3)Gal(a1-4)Gal(b1-4)GlcNAc(b1-3)Gal(b1-4)Glc", "in_short": "as §1"}, "[5]": {"biological_target": "GalNAc(b1-3)Gal(a1-6)Gal(b1-4)Glc", "in_short": "as §1"}, "GalNAc(b1-3)GalNAc": {"biological_target": "GalNAc(b1-3)GalNAc", "in_short": "as §1"}, "GalNAc(b1-3)GlcNAc": {"biological_target": "GalNAc(b1-3)GlcNAc", "in_short": "as §1"}, "GalNAc(b1-4)Gal(b1-4)Glc": {"biological_target": "GalNAc(b1-4)Gal(b1-4)Glc", "in_short": "as §1"}, "GalNAc(b1-4)GlcNAc": {"biological_target": "GalNAc(b1-4)GlcNAc", "in_short": "as §1"}, "[6]": {"biological_target": "GalNAc(b1-4)GlcNAc(b1-2)Man", "in_short": "as §1"}, "[7]": {"biological_target": "GalNAc(b1-4)GlcNAc(b1-2)Man(a1-3)[GalNAc(b1-4)GlcNAc(b1-2)Man(a1-6)]Man(b1-4)GlcNAc(b1-4)GlcNAc", "in_short": "as §1"}, "[8]": {"biological_target": "GalNAc(b1-4)GlcNAc(b1-3)GalNAc(b1-4)GlcNAc", "in_short": "as §1"}, "GalNAc(b1-4)GlcNAc6S": {"biological_target": "GalNAc(b1-4)GlcNAc6S", "in_short": "as §1"}, "GalNAc(b1-6)GalNAc": {"biological_target": "GalNAc(b1-6)GalNAc", "in_short": "as §1"}, "GalNAc3S(b1-4)GlcNAc": {"biological_target": "GalNAc3S(b1-4)GlcNAc", "in_short": "as §1"}, "GalNAc3S(b1-4)GlcNAc3S": {"biological_target": "GalNAc3S(b1-4)GlcNAc3S", "in_short": "as §1"}, "[9]": {"biological_target": "GalNAc3S(b1-4)[Fuc(a1-3)]GlcNAc", "in_short": "as §1"}, "GalNAc4S6S(b1-4)GlcNAc": {"biological_target": "GalNAc4S6S(b1-4)GlcNAc", "in_short": "as §1"}, "GalNAc6S(b1-4)GlcNAc": {"biological_target": "GalNAc6S(b1-4)GlcNAc", "in_short": "as §1"}, "Glc(a1-4)Glc": {"biological_target": "Glc(a1-4)Glc", "in_short": "as §1"}, "[10]": {"biological_target": "Glc(a1-4)Glc(a1-4)Glc(a1-4)Glc", "in_short": "as §1"}, "Glc(a1-6)Glc(a1-6)Glc": {"biological_target": "Glc(a1-6)Glc(a1-6)Glc", "in_short": "as §1"}, "[11]": {"biological_target": "Glc(a1-6)Glc(a1-6)Glc(a1-6)Glc", "in_short": "as §1"}}, "note": "Some of the results follow.", "data": [{"binder": "B1", "values": [{"measurement": "glycan array binding signal (z-score)", "setting": "Gal3S4S(b1-4)GlcNAc", "value": -0.528}, {"measurement": "glycan array binding signal (z-score)", "setting": "Gal3S6S(b1-4)GlcNAc", "value": 2.2}, {"measurement": "glycan array binding signal (z-score)", "setting": "Gal3S6S(b1-4)GlcNAc6S", "value": 0.562}, {"measurement": "glycan array binding signal (z-score)", "setting": "Gal4S(b1-4)GlcNAc", "value": -0.639}, {"measurement": "glycan array binding signal (z-score)", "setting": "Gal4S6S(b1-4)GlcNAc", "value": 1.6}, {"measurement": "glycan array binding signal (z-score)", "setting": "Gal6P(b1-4)GlcNAc", "value": 0.437}, {"measurement": "glycan array binding signal (z-score)", "setting": "Gal6S(b1-3)GlcNAc", "value": -0.431}, {"measurement": "glycan array binding signal (z-score)", "setting": "Gal6S(b1-3)GlcNAc6S", "value": -1.2}, {"measurement": "glycan array binding signal (z-score)", "setting": "Gal6S(b1-4)Glc", "value": 0.269}, {"measurement": "glycan array binding signal (z-score)", "setting": "Gal6S(b1-4)Glc6S", "value": -0.905}, {"measurement": "glycan array binding signal (z-score)", "setting": "Gal6S(b1-4)GlcNAc", "value": -0.415}, {"measurement": "glycan array binding signal (z-score)", "setting": "Gal6S(b1-4)GlcNAc6S", "value": -0.761}, {"measurement": "glycan array binding signal (z-score)", "setting": "GalNAc(a1-3)Gal", "value": -0.188}, {"measurement": "glycan array binding signal (z-score)", "setting": "GalNAc(a1-3)GalNAc", "value": 0.218}, {"measurement": "glycan array binding signal (z-score)", "setting": "[1]", "value": -0.199}, {"measurement": "glycan array binding signal (z-score)", "setting": "[2]", "value": -0.011}, {"measurement": "glycan array binding signal (z-score)", "setting": "GalNAc(b1-3)Gal", "value": -0.713}, {"measurement": "glycan array binding signal (z-score)", "setting": "[3]", "value": 0.13}, {"measurement": "glycan array binding signal (z-score)", "setting": "[4]", "value": -1.03}, {"measurement": "glycan array binding signal (z-score)", "setting": "[5]", "value": -0.338}, {"measurement": "glycan array binding signal (z-score)", "setting": "GalNAc(b1-3)GalNAc", "value": -1.06}, {"measurement": "glycan array binding signal (z-score)", "setting": "GalNAc(b1-3)GlcNAc", "value": -0.587}, {"measurement": "glycan array binding signal (z-score)", "setting": "GalNAc(b1-4)Gal(b1-4)Glc", "value": -0.107}, {"measurement": "glycan array binding signal (z-score)", "setting": "GalNAc(b1-4)GlcNAc", "value": -0.224}, {"measurement": "glycan array binding signal (z-score)", "setting": "[6]", "value": -0.109}, {"measurement": "glycan array binding signal (z-score)", "setting": "[7]", "value": 4.51}, {"measurement": "glycan array binding signal (z-score)", "setting": "[8]", "value": -0.309}, {"measurement": "glycan array binding signal (z-score)", "setting": "GalNAc(b1-4)GlcNAc6S", "value": 0.149}, {"measurement": "glycan array binding signal (z-score)", "setting": "GalNAc(b1-6)GalNAc", "value": -1.22}, {"measurement": "glycan array binding signal (z-score)", "setting": "GalNAc3S(b1-4)GlcNAc", "value": 1.87}, {"measurement": "glycan array binding signal (z-score)", "setting": "GalNAc3S(b1-4)GlcNAc3S", "value": 0.637}, {"measurement": "glycan array binding signal (z-score)", "setting": "[9]", "value": 1.46}, {"measurement": "glycan array binding signal (z-score)", "setting": "GalNAc4S6S(b1-4)GlcNAc", "value": 0.557}, {"measurement": "glycan array binding signal (z-score)", "setting": "GalNAc6S(b1-4)GlcNAc", "value": -0.027}, {"measurement": "glycan array binding signal (z-score)", "setting": "Glc(a1-4)Glc", "value": -0.141}, {"measurement": "glycan array binding signal (z-score)", "setting": "[10]", "value": 0.791}, {"measurement": "glycan array binding signal (z-score)", "setting": "Glc(a1-6)Glc(a1-6)Glc", "value": -0.293}, {"measurement": "glycan array binding signal (z-score)", "setting": "[11]", "value": 0.691}]}]}
